Laboratory results reported in paper PMC12177781, “Chalcogen Derivatives for the Treatment of African Trypanosomiasis: Biological Evaluation of Thio- and Seleno-Semicarbazones and Their Azole Derivatives” (ACS Omega, 2025).

Key:
HepG2 cells = experiment: HepG2 cytotoxicity, CellTiter-Glo, 48 h; conditions: selectivity index CC50 HepG2/EC50
HEK293 cells = experiment: HEK293 cytotoxicity, CellTiter-Glo, 48 h; conditions: selectivity index CC50 HEK293/EC50

SMILES	SIHepG2 (HepG2 cells)	SIHEK293 (HEK293 cells)	SIHepG2 (HepG2 cells; listed as Se O3)	SIHEK293 (HEK293 cells; listed as Se O3)
C/C(=N\Nc1nc(C)c[se]1)c1ccc(C)cc1 [SeC1]	1	1	–	–
C/C(=N\NC(N)=[Se])c1cccc([N+](=O)[O-])c1 [SeO5]	1	0	–	–
C/C(=N\Nc1nc(C)c[se]1)c1cccc([N+](=O)[O-])c1 [SeC5]	1	1	–	–
C/C(=N\Nc1nc(C)c[se]1)c1ccc(Br)cc1 [SeC3]	1	1	–	–
C/C(=N\NC(N)=[Se])c1ccc(C)cc1 [SeO1]	4	4	–	–
C/C(=N\NC(N)=[Se])C12CC3CC(CC(C3)C1)C2 [SeO11]	1	2	–	–
C/C(=N\NC(N)=[Se])c1ccc(Br)cc1 [SeO3]	6	6	approximately 6	approximately 6
